Earlier results in US7794712B2, “Production of mutant strain of Aspergillus fumigatus, method of assay for inhibiting siderophore biosynthesis and diagnostic method for detecting likely Aspergillus fumigatus infection” (priority 2004, dated 2010).
For at least one compound, name, drawing or mass did not settle the structure. Non-standard residues stand in square brackets, D forms with d. Residues, ends and D or L forms follow the SMILES beside them. Orn(N5-OH,N5-Ac) = CC(=O)N(O)CCC[C@H](N)C(=O)O

Details: cited from earlier work

Structure (SMILES): CC(=O)N([O-])CCC[C@@H]1NC(=O)CNC(=O)[C@H](CO)NC(=O)CNC(=O)[C@H](CCCN([O-])C(C)=O)NC(=O)[C@H](CCCN([O-])C(C)=O)NC1=O.[Fe+3] [ferricrocin] (cyclo(GSG[Orn(N5-OH,N5-Ac)][Orn(N5-OH,N5-Ac)][Orn(N5-OH,N5-Ac)]))
- pM value (thermodynamic iron binding constant): 26.5
